No constants are given. Whether binding was seen depends on the method and setting. Binding seen in cells or lysates may run through a third protein. Some results given as binding are weak or reduced against the parent protein; the word gives no strength. Sequences can lack the tags named with a protein.
Key:
Assay in all cases: co-IP
[1] = target: T1, Flag-tagged full-length LUZP1 (leucine zipper protein 1) (human) (UniProt Q86V48)
T1 sequence: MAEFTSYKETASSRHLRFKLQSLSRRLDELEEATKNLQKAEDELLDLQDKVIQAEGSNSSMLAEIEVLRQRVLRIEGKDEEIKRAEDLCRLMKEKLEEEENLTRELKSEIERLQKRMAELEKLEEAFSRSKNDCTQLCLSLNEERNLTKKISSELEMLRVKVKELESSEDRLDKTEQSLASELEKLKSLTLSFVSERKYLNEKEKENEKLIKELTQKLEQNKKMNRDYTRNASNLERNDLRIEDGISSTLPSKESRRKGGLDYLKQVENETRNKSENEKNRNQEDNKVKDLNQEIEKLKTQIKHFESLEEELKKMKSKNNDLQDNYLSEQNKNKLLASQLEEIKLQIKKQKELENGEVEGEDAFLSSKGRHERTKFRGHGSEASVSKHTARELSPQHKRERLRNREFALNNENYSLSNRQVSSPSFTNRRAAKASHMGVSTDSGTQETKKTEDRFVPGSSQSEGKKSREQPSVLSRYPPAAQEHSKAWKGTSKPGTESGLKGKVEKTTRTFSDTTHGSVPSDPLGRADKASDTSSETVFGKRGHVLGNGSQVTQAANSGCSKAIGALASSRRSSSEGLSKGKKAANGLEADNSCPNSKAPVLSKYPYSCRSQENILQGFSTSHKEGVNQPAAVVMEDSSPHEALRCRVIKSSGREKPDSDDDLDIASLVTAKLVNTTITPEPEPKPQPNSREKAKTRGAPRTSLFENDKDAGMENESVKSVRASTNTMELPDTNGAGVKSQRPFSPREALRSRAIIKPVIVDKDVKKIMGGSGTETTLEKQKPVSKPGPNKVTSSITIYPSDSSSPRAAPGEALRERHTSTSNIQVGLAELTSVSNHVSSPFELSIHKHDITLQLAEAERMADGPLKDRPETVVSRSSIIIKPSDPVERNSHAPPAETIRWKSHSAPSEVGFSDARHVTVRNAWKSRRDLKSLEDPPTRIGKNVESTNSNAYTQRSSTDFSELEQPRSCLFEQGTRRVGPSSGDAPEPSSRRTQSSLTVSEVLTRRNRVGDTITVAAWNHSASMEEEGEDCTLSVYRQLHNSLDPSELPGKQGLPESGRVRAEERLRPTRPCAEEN

Amino acid sequences for entries named in this document (tags omitted).
UniProt Q96GD4: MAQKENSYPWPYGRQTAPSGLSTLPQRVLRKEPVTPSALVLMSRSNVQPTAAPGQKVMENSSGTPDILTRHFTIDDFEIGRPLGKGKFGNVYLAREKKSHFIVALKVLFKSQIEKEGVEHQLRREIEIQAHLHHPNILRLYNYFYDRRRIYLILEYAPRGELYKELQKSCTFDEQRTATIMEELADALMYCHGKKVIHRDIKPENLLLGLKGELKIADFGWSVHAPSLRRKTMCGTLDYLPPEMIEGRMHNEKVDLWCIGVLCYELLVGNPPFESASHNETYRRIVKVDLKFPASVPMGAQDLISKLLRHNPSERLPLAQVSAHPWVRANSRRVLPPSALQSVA

[2] = target: T2, Flag-aa 1-931 LUZP1 (human) (UniProt Q86V48)
T2 sequence: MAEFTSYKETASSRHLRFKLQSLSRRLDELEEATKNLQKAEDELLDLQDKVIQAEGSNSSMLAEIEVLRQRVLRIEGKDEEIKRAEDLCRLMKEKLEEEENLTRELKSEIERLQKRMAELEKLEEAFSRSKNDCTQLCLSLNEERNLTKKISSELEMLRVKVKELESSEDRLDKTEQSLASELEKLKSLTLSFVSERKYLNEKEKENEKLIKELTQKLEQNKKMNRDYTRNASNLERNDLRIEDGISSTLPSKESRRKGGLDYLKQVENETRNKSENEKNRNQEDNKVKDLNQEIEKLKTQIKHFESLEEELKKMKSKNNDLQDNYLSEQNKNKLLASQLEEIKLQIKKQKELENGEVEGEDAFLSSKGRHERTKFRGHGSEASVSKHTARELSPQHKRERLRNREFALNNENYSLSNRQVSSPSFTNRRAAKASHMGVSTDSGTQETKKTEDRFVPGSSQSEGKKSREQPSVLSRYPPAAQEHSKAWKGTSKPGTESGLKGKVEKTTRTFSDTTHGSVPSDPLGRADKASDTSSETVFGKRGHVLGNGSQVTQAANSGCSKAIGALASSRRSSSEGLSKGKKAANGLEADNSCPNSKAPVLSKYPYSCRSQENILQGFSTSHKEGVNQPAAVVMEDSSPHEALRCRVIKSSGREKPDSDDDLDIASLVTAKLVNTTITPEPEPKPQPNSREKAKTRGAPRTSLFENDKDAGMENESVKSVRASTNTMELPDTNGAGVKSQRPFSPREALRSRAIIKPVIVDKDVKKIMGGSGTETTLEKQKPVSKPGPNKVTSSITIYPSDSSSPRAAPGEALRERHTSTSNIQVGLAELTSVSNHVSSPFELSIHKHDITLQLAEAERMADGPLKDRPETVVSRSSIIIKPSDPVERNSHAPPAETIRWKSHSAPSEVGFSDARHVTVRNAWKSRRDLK

[3] = target: T3, Flag-aa 1-920 LUZP1 (human) (UniProt Q86V48)
T3 sequence: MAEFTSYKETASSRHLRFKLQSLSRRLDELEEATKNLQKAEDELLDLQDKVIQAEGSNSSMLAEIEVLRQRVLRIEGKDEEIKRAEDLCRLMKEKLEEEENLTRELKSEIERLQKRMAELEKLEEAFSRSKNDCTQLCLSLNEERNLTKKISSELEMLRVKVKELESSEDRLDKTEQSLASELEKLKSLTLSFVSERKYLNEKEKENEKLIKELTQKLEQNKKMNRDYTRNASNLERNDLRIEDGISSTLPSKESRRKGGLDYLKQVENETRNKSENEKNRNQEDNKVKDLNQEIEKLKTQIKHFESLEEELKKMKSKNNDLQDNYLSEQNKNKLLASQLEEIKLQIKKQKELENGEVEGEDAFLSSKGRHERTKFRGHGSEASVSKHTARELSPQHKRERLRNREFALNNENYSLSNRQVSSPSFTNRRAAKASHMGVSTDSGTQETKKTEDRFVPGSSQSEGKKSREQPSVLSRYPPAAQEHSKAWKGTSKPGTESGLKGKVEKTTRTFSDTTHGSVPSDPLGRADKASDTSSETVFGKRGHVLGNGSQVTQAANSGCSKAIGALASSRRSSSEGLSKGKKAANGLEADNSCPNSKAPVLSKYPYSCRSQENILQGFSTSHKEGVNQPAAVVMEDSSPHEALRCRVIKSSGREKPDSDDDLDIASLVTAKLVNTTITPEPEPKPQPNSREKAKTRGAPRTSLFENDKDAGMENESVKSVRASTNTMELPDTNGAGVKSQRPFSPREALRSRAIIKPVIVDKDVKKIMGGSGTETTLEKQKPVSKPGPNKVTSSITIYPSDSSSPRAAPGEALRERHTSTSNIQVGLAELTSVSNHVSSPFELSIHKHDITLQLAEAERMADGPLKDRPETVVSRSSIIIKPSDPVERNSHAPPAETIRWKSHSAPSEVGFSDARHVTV

Measured: binding

GFP-tagged full length AURKB (from UniProt Q96GD4 1-344) (enzyme)
binds: all assays above

Source: article doi:10.1101/2022.07.04.498656
